Source: the supplement of paper PMC12823440, “Inhibitors supercharge kinase turnover through native proteolytic circuits” (Nature, 2025)
Counter-ions that a name gives are not always drawn. The list shows a part of the results. The calls rarely recur for the same compound in another form.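 In K562 cells expressing nanoluciferase-fused kinases, luminescence was recorded at 4 h intervals between 2 and 18 h, normalized as percent of control with DMSO at 100% and a positive control at 0%. A significant (2 sigma) signal drop marks a time point as decreased. The authors' rule for a hit is not shown and takes in more than the number of time points.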

Chains of the proteins cited; added tags and fusions are not shown. Lines headed by an entry give the natural chain unless they say otherwise; changes in a name come on top.
UniProt P07949, whole entry, looked up: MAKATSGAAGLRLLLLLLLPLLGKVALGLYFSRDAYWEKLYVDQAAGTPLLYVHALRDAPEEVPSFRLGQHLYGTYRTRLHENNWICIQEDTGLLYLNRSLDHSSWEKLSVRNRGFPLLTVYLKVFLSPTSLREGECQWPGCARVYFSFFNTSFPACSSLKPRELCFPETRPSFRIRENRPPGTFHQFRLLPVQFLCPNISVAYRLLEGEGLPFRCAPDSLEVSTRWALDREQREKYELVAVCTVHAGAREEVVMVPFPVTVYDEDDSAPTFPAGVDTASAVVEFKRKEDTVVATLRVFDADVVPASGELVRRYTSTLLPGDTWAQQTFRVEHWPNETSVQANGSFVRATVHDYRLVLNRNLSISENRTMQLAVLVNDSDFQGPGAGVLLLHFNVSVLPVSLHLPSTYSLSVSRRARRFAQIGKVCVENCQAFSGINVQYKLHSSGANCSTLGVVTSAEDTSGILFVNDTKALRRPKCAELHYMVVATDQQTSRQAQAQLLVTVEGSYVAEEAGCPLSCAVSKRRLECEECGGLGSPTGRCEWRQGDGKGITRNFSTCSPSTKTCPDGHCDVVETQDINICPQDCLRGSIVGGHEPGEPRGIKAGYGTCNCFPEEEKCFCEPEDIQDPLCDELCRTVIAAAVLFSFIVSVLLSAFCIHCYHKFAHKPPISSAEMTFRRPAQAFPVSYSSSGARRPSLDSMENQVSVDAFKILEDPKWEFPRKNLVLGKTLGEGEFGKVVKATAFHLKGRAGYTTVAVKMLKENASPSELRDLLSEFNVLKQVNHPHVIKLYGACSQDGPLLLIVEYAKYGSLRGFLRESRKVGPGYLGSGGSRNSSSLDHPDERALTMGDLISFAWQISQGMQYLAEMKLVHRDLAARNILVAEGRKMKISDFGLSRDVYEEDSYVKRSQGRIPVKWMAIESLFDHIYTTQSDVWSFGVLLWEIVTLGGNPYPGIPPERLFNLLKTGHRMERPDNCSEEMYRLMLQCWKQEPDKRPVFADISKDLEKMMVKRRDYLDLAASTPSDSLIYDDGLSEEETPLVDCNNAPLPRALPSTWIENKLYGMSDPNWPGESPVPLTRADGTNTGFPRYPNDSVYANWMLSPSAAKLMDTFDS
UniProt P07949, whole entry M918T, looked up: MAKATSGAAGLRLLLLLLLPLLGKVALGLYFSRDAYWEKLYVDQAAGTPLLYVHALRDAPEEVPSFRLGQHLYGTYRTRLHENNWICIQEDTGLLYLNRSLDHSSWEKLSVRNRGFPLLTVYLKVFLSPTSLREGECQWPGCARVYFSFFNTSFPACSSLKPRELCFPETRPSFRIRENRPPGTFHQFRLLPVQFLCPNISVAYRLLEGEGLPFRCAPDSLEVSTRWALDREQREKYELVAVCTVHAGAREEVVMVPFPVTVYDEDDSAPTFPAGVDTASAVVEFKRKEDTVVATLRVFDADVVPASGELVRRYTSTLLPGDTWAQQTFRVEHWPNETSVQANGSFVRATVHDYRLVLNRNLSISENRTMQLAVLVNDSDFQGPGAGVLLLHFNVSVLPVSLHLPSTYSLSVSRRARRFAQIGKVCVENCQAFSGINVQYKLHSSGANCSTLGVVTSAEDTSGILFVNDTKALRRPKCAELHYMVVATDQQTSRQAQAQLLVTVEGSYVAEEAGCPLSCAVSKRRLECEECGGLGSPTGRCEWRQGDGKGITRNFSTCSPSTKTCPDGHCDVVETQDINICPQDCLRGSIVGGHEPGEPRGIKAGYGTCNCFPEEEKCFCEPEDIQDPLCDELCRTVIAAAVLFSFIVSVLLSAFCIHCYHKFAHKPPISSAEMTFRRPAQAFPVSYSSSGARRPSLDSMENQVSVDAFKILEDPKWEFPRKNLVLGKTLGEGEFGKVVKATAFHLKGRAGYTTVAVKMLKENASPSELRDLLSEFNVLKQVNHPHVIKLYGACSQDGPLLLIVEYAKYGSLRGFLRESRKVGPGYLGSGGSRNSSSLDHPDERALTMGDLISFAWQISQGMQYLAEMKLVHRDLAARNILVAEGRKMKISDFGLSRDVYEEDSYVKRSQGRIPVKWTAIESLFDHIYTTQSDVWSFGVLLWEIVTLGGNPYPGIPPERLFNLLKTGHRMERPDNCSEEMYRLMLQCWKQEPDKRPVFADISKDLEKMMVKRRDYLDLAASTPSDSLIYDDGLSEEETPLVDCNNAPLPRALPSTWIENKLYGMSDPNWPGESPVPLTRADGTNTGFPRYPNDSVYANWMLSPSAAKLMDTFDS
UniProt Q9BRS2: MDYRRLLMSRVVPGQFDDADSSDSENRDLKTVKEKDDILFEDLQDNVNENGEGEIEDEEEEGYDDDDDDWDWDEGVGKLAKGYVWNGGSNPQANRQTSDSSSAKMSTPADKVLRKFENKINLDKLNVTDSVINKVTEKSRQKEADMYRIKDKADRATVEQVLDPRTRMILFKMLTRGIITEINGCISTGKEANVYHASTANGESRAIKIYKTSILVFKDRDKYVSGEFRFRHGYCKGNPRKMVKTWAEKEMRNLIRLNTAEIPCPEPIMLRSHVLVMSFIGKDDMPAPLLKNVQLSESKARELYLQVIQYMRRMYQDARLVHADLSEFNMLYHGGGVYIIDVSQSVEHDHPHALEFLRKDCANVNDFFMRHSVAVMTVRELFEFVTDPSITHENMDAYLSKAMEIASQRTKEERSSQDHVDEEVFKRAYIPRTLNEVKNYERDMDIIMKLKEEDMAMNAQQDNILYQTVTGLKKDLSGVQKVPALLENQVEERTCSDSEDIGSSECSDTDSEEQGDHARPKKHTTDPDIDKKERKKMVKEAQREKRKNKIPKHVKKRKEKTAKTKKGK
UniProt Q13546: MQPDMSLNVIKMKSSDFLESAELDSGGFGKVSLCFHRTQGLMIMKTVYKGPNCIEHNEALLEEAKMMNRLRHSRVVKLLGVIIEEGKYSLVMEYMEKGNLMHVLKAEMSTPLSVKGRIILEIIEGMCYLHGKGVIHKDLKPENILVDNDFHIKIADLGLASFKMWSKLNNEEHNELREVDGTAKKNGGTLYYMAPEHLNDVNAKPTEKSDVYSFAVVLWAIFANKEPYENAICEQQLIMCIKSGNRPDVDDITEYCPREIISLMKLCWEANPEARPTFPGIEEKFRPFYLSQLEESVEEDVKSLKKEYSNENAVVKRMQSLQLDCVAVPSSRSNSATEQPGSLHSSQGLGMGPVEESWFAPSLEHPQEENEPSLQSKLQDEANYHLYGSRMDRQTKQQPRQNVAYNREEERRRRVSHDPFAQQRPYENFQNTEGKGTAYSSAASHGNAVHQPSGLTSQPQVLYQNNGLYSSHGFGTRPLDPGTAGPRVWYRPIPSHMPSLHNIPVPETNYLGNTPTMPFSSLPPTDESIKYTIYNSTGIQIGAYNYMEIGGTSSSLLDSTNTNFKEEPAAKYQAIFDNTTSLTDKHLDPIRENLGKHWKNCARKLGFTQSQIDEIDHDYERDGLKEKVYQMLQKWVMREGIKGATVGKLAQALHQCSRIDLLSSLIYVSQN
UniProt Q01974, whole entry: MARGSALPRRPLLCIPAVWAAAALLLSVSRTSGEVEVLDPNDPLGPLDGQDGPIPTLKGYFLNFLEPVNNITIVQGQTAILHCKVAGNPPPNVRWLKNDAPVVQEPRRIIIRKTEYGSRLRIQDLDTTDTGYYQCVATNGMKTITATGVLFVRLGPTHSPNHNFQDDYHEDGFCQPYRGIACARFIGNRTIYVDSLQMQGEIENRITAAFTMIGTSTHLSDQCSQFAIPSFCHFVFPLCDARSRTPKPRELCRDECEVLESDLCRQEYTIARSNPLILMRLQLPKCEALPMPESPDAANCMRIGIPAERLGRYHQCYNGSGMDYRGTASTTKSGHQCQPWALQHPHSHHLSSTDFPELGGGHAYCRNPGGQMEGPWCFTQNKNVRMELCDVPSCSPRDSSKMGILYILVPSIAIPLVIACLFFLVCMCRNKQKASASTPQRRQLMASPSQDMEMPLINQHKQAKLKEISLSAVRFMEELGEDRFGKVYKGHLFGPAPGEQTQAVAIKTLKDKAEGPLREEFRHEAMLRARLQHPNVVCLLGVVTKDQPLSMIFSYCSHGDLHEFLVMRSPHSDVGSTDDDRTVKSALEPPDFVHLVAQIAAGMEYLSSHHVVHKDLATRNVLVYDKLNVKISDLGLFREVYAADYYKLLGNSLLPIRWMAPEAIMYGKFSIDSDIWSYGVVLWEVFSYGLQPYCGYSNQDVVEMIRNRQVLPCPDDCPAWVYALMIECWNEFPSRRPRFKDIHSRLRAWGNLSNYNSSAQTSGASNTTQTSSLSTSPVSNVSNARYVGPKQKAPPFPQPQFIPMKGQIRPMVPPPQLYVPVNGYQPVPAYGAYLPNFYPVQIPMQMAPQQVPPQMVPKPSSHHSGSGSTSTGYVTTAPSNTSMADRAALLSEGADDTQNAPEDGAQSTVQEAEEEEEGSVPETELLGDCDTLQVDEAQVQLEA
UniProt Q15418, whole entry: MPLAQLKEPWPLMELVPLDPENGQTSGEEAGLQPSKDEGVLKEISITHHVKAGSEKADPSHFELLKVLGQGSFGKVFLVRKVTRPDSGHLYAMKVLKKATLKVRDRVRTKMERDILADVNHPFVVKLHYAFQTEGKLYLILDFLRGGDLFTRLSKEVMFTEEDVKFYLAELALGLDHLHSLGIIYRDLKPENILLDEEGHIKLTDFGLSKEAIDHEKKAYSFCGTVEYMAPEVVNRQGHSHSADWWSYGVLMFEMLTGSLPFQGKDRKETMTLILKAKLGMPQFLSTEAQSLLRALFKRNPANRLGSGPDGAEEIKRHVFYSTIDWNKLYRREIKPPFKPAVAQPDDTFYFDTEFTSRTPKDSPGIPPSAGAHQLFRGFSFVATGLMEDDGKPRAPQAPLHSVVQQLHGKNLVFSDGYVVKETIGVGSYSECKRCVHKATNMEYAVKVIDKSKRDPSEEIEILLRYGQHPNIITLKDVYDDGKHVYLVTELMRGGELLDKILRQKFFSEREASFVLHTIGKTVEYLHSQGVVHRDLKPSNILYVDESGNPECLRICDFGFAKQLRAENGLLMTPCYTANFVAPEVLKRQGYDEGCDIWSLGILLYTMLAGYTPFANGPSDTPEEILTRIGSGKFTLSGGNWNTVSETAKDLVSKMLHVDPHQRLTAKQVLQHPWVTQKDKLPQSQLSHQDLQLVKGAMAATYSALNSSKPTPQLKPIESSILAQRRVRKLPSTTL
UniProt Q9NYA1, whole entry: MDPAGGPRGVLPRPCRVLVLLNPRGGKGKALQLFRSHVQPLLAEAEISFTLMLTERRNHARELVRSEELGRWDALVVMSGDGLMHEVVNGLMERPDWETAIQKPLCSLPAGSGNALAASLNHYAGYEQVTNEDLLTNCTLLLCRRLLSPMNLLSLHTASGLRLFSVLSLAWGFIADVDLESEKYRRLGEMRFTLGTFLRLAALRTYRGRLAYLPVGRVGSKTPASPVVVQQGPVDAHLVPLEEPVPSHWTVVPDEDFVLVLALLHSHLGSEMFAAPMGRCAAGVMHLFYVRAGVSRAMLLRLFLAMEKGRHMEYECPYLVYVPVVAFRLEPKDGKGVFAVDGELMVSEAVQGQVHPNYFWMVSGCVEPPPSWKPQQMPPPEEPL
UniProt Q9Y6E0: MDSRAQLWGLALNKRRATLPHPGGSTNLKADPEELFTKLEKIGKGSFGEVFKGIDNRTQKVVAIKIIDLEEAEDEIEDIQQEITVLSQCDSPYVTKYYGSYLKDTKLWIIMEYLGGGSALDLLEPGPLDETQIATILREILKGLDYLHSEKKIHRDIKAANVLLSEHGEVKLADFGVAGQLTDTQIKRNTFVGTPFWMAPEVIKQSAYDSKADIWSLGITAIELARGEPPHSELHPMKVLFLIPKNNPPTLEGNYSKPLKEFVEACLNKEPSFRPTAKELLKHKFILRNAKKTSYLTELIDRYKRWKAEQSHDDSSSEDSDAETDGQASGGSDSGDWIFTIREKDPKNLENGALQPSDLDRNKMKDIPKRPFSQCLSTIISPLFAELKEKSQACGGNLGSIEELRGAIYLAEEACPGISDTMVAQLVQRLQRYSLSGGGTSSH

Key:
Experiment in all cases: kinase-Nluc reporter destabilization hit call (1 = scored as downregulated) (binary); higher = compound decreases kinase abundance
Details in all cases: K562; 2-18 h
RET = RET (UniProt P07949)
[1] = target: RET_M918T (clone: RET_mut) (UniProt P07949)
RIOK1 = RIOK1 (UniProt Q9BRS2)
RIPK1 = RIPK1 (UniProt Q13546)
RIPK2 = RIPK2 (UniProt O43353)
ROR2 = ROR2 (UniProt Q01974)
RPS6KA1 = RPS6KA1 (UniProt Q15418)
SPHK1 = SPHK1 (UniProt Q9NYA1)
SRC = SRC (UniProt P12931)
STK24 = STK24 (UniProt Q9Y6E0)

Measured: kinase-Nluc reporter destabilization hit call

CN(c1ccc(C(F)(F)F)cc1)S(=O)(=O)c1ccc(C(=O)Nc2nc(-c3ccccn3)cs2)cc1 (2.5 µM)
inactive: RET 0 | [1] 0 | RIOK1 = 0 | RIPK1 = 0 | RIPK2 = 0 | ROR2 = 0 | RPS6KA1 = 0 | SPHK1 = 0 | SRC 0 | STK24 = 0

CC(C)(C)c1ccc(C(=O)Nc2cn3cc(-n4ccnc4)ccc3n2)cc1 (10 µM)
inactive: RET 0 | [1] 0 | RIOK1 = 0 | RIPK1 = 0 | RIPK2 = 0 | ROR2 = 0 | RPS6KA1 = 0 | SPHK1 = 0 | SRC 0 | STK24 = 0

CNC(=O)c1c(C)oc2cc(Oc3ncnc4cc(OC)c(OC)cc34)ccc12 [Fruquintinib] (10 µM)
inactive: RET 0 | [1] 0 | RIOK1 = 0 | RIPK1 = 0 | RIPK2 = 0 | ROR2 = 0 | RPS6KA1 = 0 | SPHK1 = 0 | SRC 0 | STK24 = 0

CCCCCC1CC1CC1CC1CCCCCCCC(=O)O (stereo not given) (10 µM)
inactive: RET 0 | [1] 0 | RIOK1 = 0 | RIPK1 = 0 | RIPK2 = 0 | ROR2 = 0 | RPS6KA1 = 0 | SPHK1 = 0 | SRC 0 | STK24 = 0

Cc1ccc(CNC(=O)N2CCC[C@]3(CCN(Cc4ccc(Cl)c(Cl)c4)C3)C2)cc1 (10 µM)
inactive: RET 0 | [1] 0 | RIOK1 = 0 | RIPK1 = 0 | RIPK2 = 0 | ROR2 = 0 | RPS6KA1 = 0 | SPHK1 = 0 | SRC 0 | STK24 = 0

CC(C)[C@H](CO)Nc1nc(Nc2ccc(C(=O)O)c(Cl)c2)c2ncn(C(C)C)c2n1 [Purvalanol B] (10 µM)
inactive: RET 0 | [1] 0 | RIOK1 = 0 | RIPK1 = 0 | RIPK2 = 0 | ROR2 = 0 | RPS6KA1 = 0 | SPHK1 = 0 | SRC 0 | STK24 = 0

O=C1NCCSc2c1sc1ccc(O)cc21 (2.5 µM)
inactive: RET 0 | [1] 0 | RIOK1 = 0 | RIPK1 = 0 | RIPK2 = 0 | ROR2 = 0 | RPS6KA1 = 0 | SPHK1 = 0 | SRC 0 | STK24 = 0

O=c1cc(N2CCOCC2)oc2c1ccc1ccccc12 (2 µM)
inactive: RET 0 | [1] 0 | RIOK1 = 0 | RIPK1 = 0 | RIPK2 = 0 | ROR2 = 0 | RPS6KA1 = 0 | SPHK1 = 0 | SRC 0 | STK24 = 0

CNC(=O)c1nnc(NC(=O)C2CC2)cc1Nc1cccc(-c2ncn(C)n2)c1OC [Deucravacitinib] (10 µM)
inactive: RET 0 | [1] 0 | RIOK1 = 0 | RIPK1 = 0 | RIPK2 = 0 | ROR2 = 0 | RPS6KA1 = 0 | SPHK1 = 0 | SRC 0 | STK24 = 0

CC[C@@H]1CN(C(=O)NCC(F)(F)F)C[C@@H]1c1cnc2cnc3[nH]ccc3n12 [Upadacitinib] (10 µM)
inactive: RET 0 | [1] 0 | RIOK1 = 0 | RIPK1 = 0 | RIPK2 = 0 | ROR2 = 0 | RPS6KA1 = 0 | SPHK1 = 0 | SRC 0 | STK24 = 0

Cn1cc(C2=C(c3c4n(c5ccccc35)CCC(CN)C4)C(=O)NC2=O)c2ccccc21 (stereo not given) [Bisindolylmaleimide X (hydrochloride)] (2.5 µM)
inactive: RET 0 | [1] 0 | RIOK1 = 0 | RIPK1 = 0 | RIPK2 = 0 | ROR2 = 0 | RPS6KA1 = 0 | SPHK1 = 0 | SRC 0 | STK24 = 0

C=CC(=O)Nc1cccc(Oc2nc(Nc3ccc(N4CCN(C)CC4)cc3)nc3ccsc23)c1 [Olmutinib] (2.5 µM)
inactive: RET 0 | [1] 0 | RIOK1 = 0 | RIPK1 = 0 | RIPK2 = 0 | ROR2 = 0 | RPS6KA1 = 0 | SPHK1 = 0 | SRC 0 | STK24 = 0

O=C(CC(c1ccccc1)C(C(=O)O)C(=O)O)c1ccc(C(F)(F)F)cc1 (stereo not given) (10 µM)
inactive: RET 0 | [1] 0 | RIOK1 = 0 | RIPK1 = 0 | RIPK2 = 0 | ROR2 = 0 | RPS6KA1 = 0 | SPHK1 = 0 | SRC 0 | STK24 = 0

C=CC(=O)Nc1cccc(Nc2nc(Nc3ccc(Oc4ccnc(C(=O)NC)c4)cc3)ncc2F)c1 (2.5 µM)
inactive: RET 0 | [1] 0 | RIOK1 = 0 | RIPK1 = 0 | RIPK2 = 0 | ROR2 = 0 | RPS6KA1 = 0 | SPHK1 = 0 | SRC 0 | STK24 = 0

Quoted at random: 2 compounds from above.
Cc1ccc(CNC(=O)N2CCC[C@]3(CCN(Cc4ccc(Cl)c(Cl)c4)C3)C2)cc1 (10 µM)
inactive: RET 0 | [1] 0 | RIOK1 = 0 | RIPK1 = 0 | RIPK2 = 0 | ROR2 = 0 | RPS6KA1 = 0 | SPHK1 = 0 | SRC 0 | STK24 = 0

CNC(=O)c1c(C)oc2cc(Oc3ncnc4cc(OC)c(OC)cc34)ccc12 [Fruquintinib] (10 µM)
inactive: RET 0 | [1] 0 | RIOK1 = 0 | RIPK1 = 0 | RIPK2 = 0 | ROR2 = 0 | RPS6KA1 = 0 | SPHK1 = 0 | SRC 0 | STK24 = 0

Following part

COc1ccc(C2CC(c3ccc(Cl)cc3)=NN2c2nc(-c3ccncc3)cs2)cc1 (stereo not given) [mTOR inhibitor-8] (10 µM)
inactive: RET 0 | [1] 0 | RIOK1 = 0 | RIPK1 = 0 | RIPK2 = 0 | ROR2 = 0 | RPS6KA1 = 0 | SPHK1 = 0 | SRC 0 | STK24 = 0

Cc1cc([N+](=O)[O-])c(NS(=O)(=O)c2cccc(C(=O)O)c2)cc1-c1cccnc1 [Alofanib] (10 µM)
inactive: RET 0 | [1] 0 | RIOK1 = 0 | RIPK1 = 0 | RIPK2 = 0 | ROR2 = 0 | RPS6KA1 = 0 | SPHK1 = 0 | SRC 0 | STK24 = 0

Cn1c(=O)c(Oc2ccc(F)cc2F)cc2cnc(NC(CCO)CCO)nc21 [Pamapimod] (10 µM)
inactive: RET 0 | [1] 0 | RIOK1 = 0 | RIPK1 = 0 | RIPK2 = 0 | ROR2 = 0 | RPS6KA1 = 0 | SPHK1 = 0 | SRC 0 | STK24 = 0

O=C1C(=Cc2ccc(O)c(O)c2)Oc2ccccc21 (2.5 µM)
inactive: RET 0 | [1] 0 | RIOK1 = 0 | RIPK1 = 0 | RIPK2 = 0 | ROR2 = 0 | RPS6KA1 = 0 | SPHK1 = 0 | SRC 0 | STK24 = 0

Cc1ccc(-n2c(-c3ccc(O)cc3O)n[nH]c2=O)cc1 (10 µM)
inactive: RET 0 | [1] 0 | RIOK1 = 0 | RIPK1 = 0 | RIPK2 = 0 | ROR2 = 0 | RPS6KA1 = 0 | SPHK1 = 0 | SRC 0 | STK24 = 0

Cn1cc(-c2ccc3nnc(Sc4ccc5nn(C)cc5c4)n3n2)cn1 [c-Met inhibitor 1] (10 µM)
inactive: RET 0 | [1] 0 | RIOK1 = 0 | RIPK1 = 0 | RIPK2 = 0 | ROR2 = 0 | RPS6KA1 = 0 | SPHK1 = 0 | SRC 0 | STK24 = 0

Cc1cc(=O)[nH]c(=S)[nH]1 [Methylthiouracil] (10 µM)
inactive: RET 0 | [1] 0 | RIOK1 = 0 | RIPK1 = 0 | RIPK2 = 0 | ROR2 = 0 | RPS6KA1 = 0 | SPHK1 = 0 | SRC 0 | STK24 = 0

CC(C)(O)c1cc(Nc2cc(Oc3cn(C4CC4)nc3C3CCOCC3)ccn2)ccn1 (10 µM)
inactive: RET 0 | [1] 0 | RIOK1 = 0 | RIPK1 = 0 | RIPK2 = 0 | ROR2 = 0 | RPS6KA1 = 0 | SPHK1 = 0 | SRC 0 | STK24 = 0

CN(C)CCCNc1ccn2ncc(-c3ccc4c(c3)OCO4)c2n1 (10 µM)
inactive: RET 0 | [1] 0 | RIOK1 = 0 | RIPK1 = 0 | RIPK2 = 0 | ROR2 = 0 | RPS6KA1 = 0 | SPHK1 = 0 | SRC 0 | STK24 = 0

CC(=O)Nc1nc(C)c(-c2ccc(Cl)c(S(=O)(=O)NCCO)c2)s1 (10 µM)
inactive: RET 0 | [1] 0 | RIOK1 = 0 | RIPK1 = 0 | RIPK2 = 0 | ROR2 = 0 | RPS6KA1 = 0 | SPHK1 = 0 | SRC 0 | STK24 = 0

CNC(=O)c1ccc(-c2cnc3ncc(Cc4ccc5ncccc5c4)n3n2)cc1F [Capmatinib] (10 µM)
inactive: RET 0 | [1] 0 | RIOK1 = 0 | RIPK1 = 0 | RIPK2 = 0 | ROR2 = 0 | RPS6KA1 = 0 | SPHK1 = 0 | SRC 0 | STK24 = 0

C[C@@H]1CN(Cc2cn[nH]c2-c2ccc(C#N)cc2)CCN1c1ccc(C(F)(F)F)cn1 (2.5 µM)
inactive: RET 0 | [1] 0 | RIOK1 = 0 | RIPK1 = 0 | RIPK2 = 0 | ROR2 = 0 | RPS6KA1 = 0 | SPHK1 = 0 | SRC 0 | STK24 = 0

CN1CCC(c2ccccc2CC(C)(C)Nc2nc(N3CCOCC3)nc(-n3c(S(C)(=O)=O)nc4ccccc43)n2)CC1 (10 µM)
inactive: RET 0 | [1] 0 | RIOK1 = 0 | RIPK1 = 0 | RIPK2 = 0 | ROR2 = 0 | RPS6KA1 = 0 | SPHK1 = 0 | SRC 0 | STK24 = 0

O=c1[nH]nc(Sc2ncc([N+](=O)[O-])s2)n1-c1ccc2c(c1)OCCO2 (2.5 µM)
inactive: RET 0 | [1] 0 | RIOK1 = 0 | RIPK1 = 0 | RIPK2 = 0 | ROR2 = 0 | RPS6KA1 = 0 | SPHK1 = 0 | SRC 0 | STK24 = 0

CC(C)(C)NS(=O)(=O)c1cncc(-c2cc(F)c3nc(N)nn3c2)c1 (10 µM)
inactive: RET 0 | [1] 0 | RIOK1 = 0 | RIPK1 = 0 | RIPK2 = 0 | ROR2 = 0 | RPS6KA1 = 0 | SPHK1 = 0 | SRC 0 | STK24 = 0
